# Library screen at single concentrations

Measurements from “University of Dundee, Small-Polar-MMV Screening Library” (2021), ChEMBL document CHEMBL3988442.

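Whole-cell growth test on Mycobacterium tuberculosis, read after 4 days in a medium based on cholesterol and the lipid DPPC; the read-out is not stated. Concentration: 500 µM. The record gives no direction; compounds that gave an IC50 in retests scored well above the rest, so higher reads as more growth inhibition. About 18,000 compounds were tested under these conditions; 5% (about 900) showed 50% or more at least once.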

The filed quantity is “Percent Effect” (%). How 0% and 100% were set is not recorded. Most values in the screen are low, and negative values occur. The compounds are a random part of those screened.

structure | percent effect
O=C(NCCn1ccnc1)c1ccc(C(F)(F)F)nc1 | -1.166
Cc1cc(C)cc(NC(=O)CCN2CCSCC2)c1 | -7.689
CCc1nc2ccccc2n1CCN | 13.26
NC1CCCN(c2ccccc2F)C1=O (stereo not given) | -0.9063
CS(=O)(=O)NC1CCN(C(=O)c2cncc(F)c2)CC1 | -19.86
Cc1cccc(NCC2(CS(C)(=O)=O)CC2)n1 | -1.285
CCC(C)(C)OCC(O)CN1CCN(C)CC1 (stereo not given) | 10.69
Cn1ccc(C(=O)N2CCCC2c2cccs2)cc1=O (stereo not given) | -7.464
CSC(C)C(=O)NCCNC(=O)C(C)C (stereo not given) | 2.517
Cc1cc(C2CCCNC2)[nH]n1 (stereo not given) | -11.87
CNc1nc(C(=O)N2C[C@H](C3CC3)[C@@H](N)C2)cs1 | 23.59
O=C(NCC(O)c1ccsc1)C1=CCCCO1 (stereo not given) | 15.67
CC(=O)Nc1ccnn1Cc1ccccc1F | -21.14
O[C@H]1C[C@@H](c2cc(NCCn3cnnn3)ncn2)C1 | -11.47
O=C1CN(Cc2ncc[nH]2)CCN1C1CCCC1 | 8.189
NCc1cc2ccc(F)cc2[nH]c1=O | -6.782
CCc1nc(C)c(C(=O)NCC2CCS(=O)(=O)CC2)o1 | 77.43
CCc1nnsc1C(=O)N(C)Cc1cc(C)on1 | 7.915
COC(=O)Cc1nc2ccccc2[nH]1 | -10.47
CC(C)NC(C1CCNCC1)[C@H]1C[C@H](O)C1 (stereo not given in full) | -0.2301
CC1=NOC(C(=O)NCCCn2nc(C)nc2C)C1 (stereo not given) | 0.819
CCn1c(C(=O)N2CCC(O)CC2)cc2ccccc21 | 17.16
NC(CN1CCOCC1)c1ccccc1 (stereo not given) | 31.44
CCC(O)CN1CCN(c2ncccc2Br)CC1 (stereo not given) | 51.77
Cc1cccc(CNC(=O)N2CCOC(C)C2)n1 (stereo not given) | -7.962
O=C(c1ccncc1Br)N1CCCc2cccc(O)c21 | -18.03
O=C(Cc1cccs1)NCC1CCOCC1 | 9.049
CC1CN(C(=O)N2CCOCC2)c2ccc(F)cc2O1 (stereo not given) | -5.254
COc1ccc(OC)c(NC(=O)C(C)C)c1 | 34.26
O=C(c1cnccn1)N1CCN(Cc2ccsc2)CC1 | 7.581
COCC(=O)NCCS(=O)(=O)c1ccc(Br)cc1 | -13.81
COc1ccc(S(=O)(=O)N2CCCNCC2)cc1 | -4.004
CCc1cc(C(=O)NCC(=O)C(C)C)[nH]n1 | -10.52
CS(=O)(=O)Nc1cccc(CNC(=O)C2CCC2)c1 | -2.045
CCN(CC(C)C#N)C(=O)c1ccc(C)[nH]c1=O (stereo not given) | -20.83
Cc1n[nH]c(C)c1S(=O)(=O)N1CCC(N)CC1 | -1.063
CN(CCC#N)C(=O)c1cnn(-c2cccc(Cl)c2)c1 | 6.022
COC(=O)c1ccc2cnn(C)c2c1 | -13.78
CC(O)C(=O)Nc1ccc(S(N)(=O)=O)cc1 (stereo not given) | -9.488
COc1ccccc1CCC(=O)N[C@@H]1CCNC[C@H]1O | 8.689
CCN(Cc1ccccc1OCCO)[C@H]1COC[C@@H]1O | 6.401
Cc1nc(CN(C)CC(=O)Nc2ccn(C)n2)no1 | -19.05
CCN(CC)C(=O)c1ccc(=O)n(CCOC)n1 | -5.745
CC1COCCN1Cc1cc(=O)n(C)c(=O)n1C (stereo not given) | -16.97
CC(C)C(C)C(=O)NCCc1cncn1C (stereo not given) | 4.431
COc1ncccc1C(=O)N1CCc2[nH]ncc2C1 | -11.17
COCCNC(=O)[C@H]1[C@@H]2CN(C3CCCC3)C[C@@H]21 | -7.72
COc1ccc(CNC(=O)C(C)(C)C)c(OC)c1OC | 11.44
Cc1c[nH]c(C(=O)NC2COc3ccccc3C2)n1 (stereo not given) | 22.14
OCCNC1(c2ccc(Br)cc2)CCOCC1 | 10.35
Cc1ccccc1C(C#N)NC(=O)Cc1cccnc1 (stereo not given) | 1.892
CCS(=O)(=O)CCNC(C)(CO)C1CCCCC1 (stereo not given) | 2.089
CC(=O)N[C@@H]1CNC[C@H]1CO | -4.374
CC(CO)(NC(=O)c1c(O)cccc1F)C1CC1 (stereo not given) | -16.27
NC(=O)COc1cccc(CNC(=O)C2CC=CC2)c1 | 14.75
N#Cc1cccc(CN)c1 | 9.28
COCCNS(=O)(=O)C1CCCCC1 | 22.2

The first 7 entries again:

structure,percent effect
O=C(NCCn1ccnc1)c1ccc(C(F)(F)F)nc1,-1.166
Cc1cc(C)cc(NC(=O)CCN2CCSCC2)c1,-7.689
CCc1nc2ccccc2n1CCN,13.26
NC1CCCN(c2ccccc2F)C1=O (stereo not given),-0.9063
CS(=O)(=O)NC1CCN(C(=O)c2cncc(F)c2)CC1,-19.86
Cc1cccc(NCC2(CS(C)(=O)=O)CC2)n1,-1.285
CCC(C)(C)OCC(O)CN1CCN(C)CC1 (stereo not given),10.69